## Library screen at single concentrations

The chains behind the UniProt entries cited, without tags or fusion partners. Residues count along the entry.
UniProt A4I591, 1-473: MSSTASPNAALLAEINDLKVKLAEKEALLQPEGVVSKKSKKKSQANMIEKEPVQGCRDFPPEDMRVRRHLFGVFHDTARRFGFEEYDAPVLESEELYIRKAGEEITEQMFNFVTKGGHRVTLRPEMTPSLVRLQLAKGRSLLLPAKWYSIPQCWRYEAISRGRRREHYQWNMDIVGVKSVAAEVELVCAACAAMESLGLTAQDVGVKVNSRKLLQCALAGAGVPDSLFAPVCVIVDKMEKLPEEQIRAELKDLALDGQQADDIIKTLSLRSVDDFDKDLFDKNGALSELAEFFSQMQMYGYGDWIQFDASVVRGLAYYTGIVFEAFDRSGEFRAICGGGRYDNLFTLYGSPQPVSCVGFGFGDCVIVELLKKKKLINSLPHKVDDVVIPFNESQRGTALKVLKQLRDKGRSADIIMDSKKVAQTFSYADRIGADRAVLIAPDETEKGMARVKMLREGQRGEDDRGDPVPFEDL
UniProt P9WPC5, whole entry: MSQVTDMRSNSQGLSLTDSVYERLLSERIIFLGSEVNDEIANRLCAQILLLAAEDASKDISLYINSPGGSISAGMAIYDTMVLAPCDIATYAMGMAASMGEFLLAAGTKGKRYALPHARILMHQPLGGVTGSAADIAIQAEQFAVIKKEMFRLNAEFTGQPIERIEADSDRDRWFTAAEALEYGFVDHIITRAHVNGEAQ
UniProt P9WPC3, whole entry partner: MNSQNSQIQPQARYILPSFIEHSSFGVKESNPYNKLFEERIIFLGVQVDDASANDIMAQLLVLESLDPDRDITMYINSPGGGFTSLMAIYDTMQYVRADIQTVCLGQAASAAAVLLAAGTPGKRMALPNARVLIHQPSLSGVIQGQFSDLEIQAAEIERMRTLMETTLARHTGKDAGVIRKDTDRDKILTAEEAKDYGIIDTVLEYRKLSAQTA

LiHisRS: 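Enzyme assay of histidyl-tRNA synthetase; the read-out is not stated. Target: Histidine-tRNA ligase, Leishmania infantum (UniProt A4I591). Concentration: 30 µM. Direction is inferred from retests: higher values go with stronger inhibition. The assay is labelled LdHisRS but filed under L. infantum. Of about 69,000 compounds tested this way, about 410 (0.6%) reached 50% or more in at least one test.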
Toxoplasma: 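Assay of Toxoplasma gondii numbers, read through their beta-galactosidase reporter with a colour substrate. Tested at 10 µM. Higher reads as fewer parasites (inferred from which compounds were picked for retests). Of about 67,000 compounds tested this way, about 260 (0.38%) reached 50% or more in at least one test.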
ClpP1P2: 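Protease assay of ClpP1P2, read by the AMC dye that it sets free. Target: ClpP1P2, Mycobacterium tuberculosis (UniProt P9WPC5 and UniProt P9WPC3). Tested at 50 µM. Higher reads as stronger inhibition, judged from the few compounds that gave an IC50. Most other retested compounds had strongly negative values. Of about 69,000 compounds tested this way, about 10 (0.015%) reached 50% or more in at least one test.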
T. brucei: 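Whole-parasite assay of Trypanosoma brucei over 72 hours; the read-out is not stated. Compounds at 30 µM. Direction is inferred from retests: higher values go with stronger inhibition. Values scatter widely below zero; nearly all retest evidence comes from the higher of the two concentrations used. About 64,000 compounds were tested under these conditions; 1.5% (about 940) showed 50% or more at least once.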
Leishmania in macrophages: 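Cell assay of Leishmania donovani living inside macrophages; the read-out is not stated. Tested at 30 µM. The record gives no direction; compounds that gave an IC50 in retests scored well above the rest, so higher reads as stronger inhibition. Of about 69,000 compounds tested this way, about 1,000 (1.5%) reached 50% or more in at least one test.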

Each number is a percent effect as filed.
The controls that fix the scale are not given in the record; negative values are as filed.
The compounds are a random part of those screened.
Two or more numbers in one place are separate tests of the same structure; such repeats can differ widely.
A dash means the value is not listed here; it may have been measured.

compound | LiHisRS | Toxoplasma | ClpP1P2 | T. brucei | Leishmania in macrophages
COCC(=O)NCc1cccc(Br)c1 | 24.8% | -5.222% | 26.32% | -34.57% | -9.51%
CCOC(=O)C1(CCOC)CCCN(Cc2nccn2CC)C1 (stereo unspecified) | -5.333% | 4.201% | -3.433% | -20.23% | -5.772%
CN(C)[C@@H]1CCN(C(=O)Cc2cccs2)[C@H]1Cc1cnn(C)c1 | 12% | - | -1.827% | - | -
CCn1nccc1CNC(=O)C1CCCO1 (stereo unspecified) | 5.31% | 10.99% | 28.55% | - | 2.08%
Cc1noc(-c2cnc(NCC3CCCO3)nc2-c2ccco2)c1C (stereo unspecified) | 12.95% | 1.985% | -15.5% | 12.6% | 35.54%
Cn1nc(C(=O)N2CCCCC2c2nc3cc(F)ccc3[nH]2)ccc1=O (stereo unspecified) | 16.35% | -0.2908% | -14.68% | -12.3% | 1.428%
Cl.O=C(CCc1cccc(C2CCNCC2)n1)N1CCCCC1 | - | - | - | - | 3.696%
Cc1cc(C(=O)N2CCOC(c3nc(C(C)C)n[nH]3)C2)no1 (stereo unspecified) | 0.8772% | 2.637% | 5.633% | 15.24% | 17.26%
CC(C)C(C(=O)NCc1ccccc1-n1cccn1)N(C)C (stereo unspecified) | 13.16% | 1.658% | 2.818% | 0.02576% | 11.3%
COc1ccc(-n2nc(C)c(C(C)=O)c2C)cc1C(N)=O | 12% | -7.995% | 9.343% | -24.31% | 9.786%
CNC(=O)C1CN(c2ccnc(C)n2)CCN1Cc1ccccc1 (stereo unspecified) | 4.286% | -2.915% | -17.86% | 29.32% | 10.94%
COc1ccc(C(=O)Nc2cccc(SC)c2)c(OC)n1 | -7.921% | 23.96% | 7.927% | -29.08% | -0.09194%
O=C(C[S+]([O-])Cc1csc(C2CCCC2)n1)Nc1ccccc1 (stereo unspecified) | 15.38% | 0.4536% | 2.147% | - | 0.3417%
CCCNC(=O)c1cc(-c2ccn(C(C)C)n2)n2ccccc12 | 15.52% | -6.958% | -107% | -23.76% | 25.43%
CCC(NC(=O)CNC(=O)OC)c1cc(F)ccc1F (stereo unspecified) | 21.52% | 10% | -5.529% | 9.736% | 6.306%
Cn1cc(C(=O)CC2CCCN2C(=O)c2cccc3ncccc23)cn1 (stereo unspecified) | -5.263% | -9.545% | -4.156% | -17.51% | -15.11%
CC(=O)N1CCC(N2C[C@@H](F)[C@@H](OCc3nc4ncccc4[nH]3)C2)CC1 | 28.38% | 15.71% | -3.019% | -1.308% | 17.72%
CNC(=O)c1cccc(NCCOc2ccc(CC#N)cc2)c1C | 15.15% | -1.097% | 4.539% | 5.41% | -8.127%
CNC(=O)Cc1ccccc1NC(=O)C1CCCC1 | 22.86% | -6.872% | 7.731% | -50.81% | -4.792%
Cc1nccc(N[C@H]2CN(C(=O)C3(C#N)CCOCC3)C[C@@H]2C(C)C)n1 | -8.046% | -7.473% | -3.225% | -18.01% | 12.17%
O=C1N(Cc2ccncc2)CCC12CCCN(c1ncc(F)cn1)C2 (stereo unspecified) | 3.774% | - | -10.72% | - | -
N#Cc1csc(CNCCOc2ccc(Cl)cn2)c1 | 21.43% | -22.22% | 6.6% | -19.85% | 13.37%
CCC(C#N)NC(=O)c1sccc1OC (stereo unspecified) | 10.59% | -14.01% | -7.022% | -3.632% | -13%
CN(C)C(=O)CCCn1ccc(NC(=O)NCc2cccc(F)c2)n1 | 2.083% | -0.4284% | -13.31% | -30.23% | -15.56%
CO[C@H]1CN(Cc2c(C)ccc3ncccc23)CC[C@H]1N | 14.67% | -16.33% | 3.03% | 24.08% | 38.96%
CC(C)Oc1cccc(CNC(=O)NC(C)(C(=O)O)c2ccco2)c1 (stereo unspecified) | 16.67% | -1.193% | -0.465% | 34.99% | -9.274%
CCOCCCNC(=O)C1(C)CCC(=O)N1Cc1ccccc1F (stereo unspecified) | 9.589% | -14.49% | -8.333% | 6.424% | 13.04%
Cc1ccc(C2CN(C(=O)c3ccn(C)c(=O)c3)CCO2)nc1 (stereo unspecified) | 13.68% | -23.02% | 1.985% | 9.534% | 10.8% and 8.982%
Cc1nc(C(NC(=O)C2CCCC2)c2ccccc2F)no1 (stereo unspecified) | -15.79% | -1.441% | 2.603% | -11.16% | -5.115%
Cc1cnc(CCNc2cccc(CC3CCCNC3)n2)s1 (stereo unspecified) | 39.72% | - | -99.67% | - | -
COC(=O)CCNC(=O)c1cc(-c2ccc(OC)cc2)nn1C | 14.61% | 8.217% | -3.755% | -0.184% | 17.63%
Cc1ccsc1CNC(=O)CSc1nnc[nH]1 | 15.49% | 5.716% | 11.03% | -23.99% | 13.71%
CCc1noc(CN2CCN(C(=O)COC)CC2)n1 | -8.475% | 19.95% | -5.423% | - | -0.6574%
CCN(C(C)=O)C(c1cccnc1)c1cc(C)cc(C)c1 (stereo unspecified) | 6.349% | 2.065% | -15.4% | 3.281% | -20.35%
Cc1cc(C)nc(CN2CCOC(c3ccc(Cl)cc3)C2)n1 (stereo unspecified) | 21.43% | 7.092% | -4.106% | -67.76% | 0.3382%
CCCn1nc2c(cc1=O)CN(Cc1ccccn1)CC2 | 75.76% | 2.714% | -4.833% | -20.17% | 2.99%
O=C(Nc1cccc2ccccc12)N1CCC(N2CCSCC2)CC1 | 18.31% | -12.19% | -5.481% | -38.35% | 23.94%
CC(NC(=O)NCCCc1n[nH]c(N)c1C#N)c1cccs1 (stereo unspecified) | -23.6% | - | 10.07% | -6.084% | 3.041%
Cn1cc(CN2C[C@H]3CCN(C(=O)c4cscn4)C[C@H]3C2)cn1 | -1.613% | - | -8.13% | - | -
CCC[C@@H]1CN(Cc2cc3c(cc2OC)OCCO3)C[C@H]1C(=O)O | 9.333% | -14.72% | 2.191% | -23.3% | 12.94%
Cc1nn(-c2ccccc2)cc1C(=O)N1CCCC(n2cccn2)C1 (stereo unspecified) | 17.57% | 15.62% | 0.1276% | -16.89% | 17.78%
Cc1cc2n(n1)CC(CNC1CCN(c3ccccn3)CC1)CN2 (stereo unspecified) | 13.11% | -9.797% | -6.758% | -30.42% | -5.394%
CC[C@@H](C)[C@@H](N)C(=O)Nc1cccc(-c2cnc(NCCO)nc2)c1 | 2.857% | -6.229% | -6.667% | -12.83% | 9.073% and -3.995%
CC(Nc1cccc(F)c1C#N)c1cccc(S(N)(=O)=O)c1 (stereo unspecified) | 16.96% | 16.98% | 4.562% | 70.17% | 1.271%
COCCN(Cc1ccc(F)cc1Cl)C(=O)c1ccncc1 | 4.808% | -0.8723% | -7.471% | -4.054% | 11.1%
CCC(CC)NC(=O)c1cccnc1N1CCCC1c1ccccn1 (stereo unspecified) | 0% | 2.286% | -1.334% | 0.8185% | 28.84%
Cc1ccc(CN2CCCC3(CCN(S(=O)(=O)N(C)C)C3)C2)o1 (stereo unspecified) | 13.87% | 2.94% | 8.131% | 19.16% | 9.879%
Cc1ccc(C(=O)Nc2ccn(CCC(N)=O)n2)cc1 | 14.52% | -9.944% | -3.748% | -45.07% | 36.3%
CCNC(=O)N(CCCO)C1CCCc2ccccc21 (stereo unspecified) | 2.679% | -54.3% | -9.385% | 0.5781% | 19.13%
CCN(CC)Cc1ccc(C(=O)N2CCCCC2Cn2cccn2)o1 (stereo unspecified) | 0% | 2.693% | 3.858% | 20.62% | 19.8%
O=C1CC2(CCCCN2C(=O)c2ccccc2)CN1CC1CC1 (stereo unspecified) | 28.44% | 1.816% | 6.328% | 8.836% | 23.01%
CNC(=O)c1cn[nH]c1C1(C)CCCN(CC2(O)CCCCC2)C1 (stereo unspecified) | 9.474% | -16.67% | 7.029% | -11.27% | 6.667% and 20.5%
COc1ccc(CN2CCC3(CC2)CCN(CC(=O)N(C)C)C3=O)cc1.O=C(O)C(F)(F)F | - | -12.91% | - | -9.575% | -1.89%
Cc1cc(C(=O)Nc2ccc(OCCN3CCN(C)CC3)cc2)[nH]n1 | 6.218% | 4.59% | 3.984% | 3.107% | -7.312%
c1ccc(CN2C[C@@H]3COC[C@]3(COCc3ccncc3)C2)nc1 | 17.43% | - | 4.16% | - | -
CN1CC2(CCN(C(=O)c3cccc(-n4cccn4)c3)CC2)OC1=O | 13.27% | 2.358% | 5.489% | 18.15% | 16.42%
O=C(C1CC=CC1)N1CCC2(CC1)CNCCO2 | 11.97% | - | 1.798% | - | -
COc1ccc(C)cc1NC(=O)Nc1cnc(N2CCOCC2)nc1 | 15.73% | 10.25% | -9.431% | -0.7377% | -26.13%
Cc1nc(C2CCCN2Cc2cc(Cl)c3c(c2)OCO3)no1 (stereo unspecified) | 12.77% | 0.6676% | -16.28% | -30.76% | -18.5%
CC(=O)Nc1nc(C(=O)NCc2ccc(N3CCCCCC3)nc2)cs1 | 29.73% | 12.88% | 12.81% | 12.79% | 27.71%

The last 5 entries again:

{"compound": "CN1CC2(CCN(C(=O)c3cccc(-n4cccn4)c3)CC2)OC1=O", "LiHisRS": 13.27, "Toxoplasma": 2.358, "ClpP1P2": 5.489, "T. brucei": 18.15, "Leishmania in macrophages": 16.42}
{"compound": "O=C(C1CC=CC1)N1CCC2(CC1)CNCCO2", "LiHisRS": 11.97, "ClpP1P2": 1.798}
{"compound": "COc1ccc(C)cc1NC(=O)Nc1cnc(N2CCOCC2)nc1", "LiHisRS": 15.73, "Toxoplasma": 10.25, "ClpP1P2": -9.431, "T. brucei": -0.7377, "Leishmania in macrophages": -26.13}
{"compound": "Cc1nc(C2CCCN2Cc2cc(Cl)c3c(c2)OCO3)no1", "stereo": "stereo unspecified", "LiHisRS": 12.77, "Toxoplasma": 0.6676, "ClpP1P2": -16.28, "T. brucei": -30.76, "Leishmania in macrophages": -18.5}
{"compound": "CC(=O)Nc1nc(C(=O)NCc2ccc(N3CCCCCC3)nc2)cs1", "LiHisRS": 29.73, "Toxoplasma": 12.88, "ClpP1P2": 12.81, "T. brucei": 12.79, "Leishmania in macrophages": 27.71}

Source: ChEMBL document CHEMBL3988442, “University of Dundee, Small-Polar-MMV Screening Library” (2021).